# Experimental data published in the supplement of paper PMC12067093, “Discovery and optimisation of a covalent ligand for TRIM25 and its application to targeted protein ubiquitination” (Chemical Science, 2025).
# This is one part of the list.
# Compound: Cc1cc(ccc1-c1ccccc1)C(=O)N1CCCN(CC1)C(=O)CCl [compound 10]
# Assay: probe-labelled cysteine peptide fold change vs DMSO (competition) (log2 fold change); higher = less target engagement (more negative = stronger competition)
# Settings: THP-1, incubation time: 4 h
# 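Further: competitive profiling in live THP-1 cells: cysteine peptides tagged with an iodoacetamide desthiobiotin (IA-DTB) probe, intensity after compound treatment relative to DMSO-treated cells.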
Target,probe-labelled cysteine peptide fold change (10 µM),probe-labelled cysteine peptide fold change (50 µM)
DHX15_O43143_174_TTQIPQWCVEYMR (UniProt O43143),0.0109,0.187
DICER1_Q9UPY3_443_EKPETNFPSPFTNILCGIIFVER (UniProt Q9UPY3),0.185,0.407
DKC1_O60832_310_DSAVNAICYGAK (UniProt O60832),0.124,0.0135
DHX38_Q92620_1074_CICAAYFHQAAK (UniProt Q92620),0.137,-0.05
DNMT1_P26358_62_NQLCDLETK (UniProt P26358),-0.156,-0.373
DNMT1_P26358_691_CPNMAMK (UniProt P26358),-0.0408,-0.52
DNASE1L1_P49184_224_ASTHCTYDR (UniProt P49184),-0.121,0.00658
DHX30_Q7L2E3_346_RPCTIQVPEPILR (UniProt Q7L2E3),-0.647,-1.7
DIS3_Q9Y2L1_213_LACLSEEGNEIESGK (UniProt Q9Y2L1),-0.105,0.00381
DIS3_Q9Y2L1_474+492_HLCICSVDPPGCTDIDDALHCR (UniProt Q9Y2L1),-0.0307,-0.115
DNAJA1_P31689_261_RGEDLFMCMDIQLVEALCGFQK (UniProt P31689),0.326,0.324
DIS3L2_Q8IYB7_396_DLDDALSCKPLADGNFK (UniProt Q8IYB7),-0.0741,-0.141
DHX30_Q7L2E3_606_YFGGCPVIK (UniProt Q7L2E3),0.0194,-0.149
DIAPH1_O60610_437_LIEECISQIVLHK (UniProt O60610),0.25,0.0877
DIS3L_Q8TF46_482_GCEDVDDTLSVR (UniProt Q8TF46),-0.331,-0.0798
DKC1_O60832_131_VTGCLIVCIER (UniProt O60832),-0.0378,0.266
DHRS9_Q9BPW9_60_GFHVIAACLTESGSTALK (UniProt Q9BPW9),0.185,0.3
DNAJA3_Q96EY1_256_VQHCHYCGGSGMETINTGPFVMR (UniProt Q96EY1),0.00348,-0.115
DHX57_Q6P158_598_VANIICTQPR (UniProt Q6P158),-0.173,0.00446
DIS3L_Q8TF46_203_AAHELCDSILQSR (UniProt Q8TF46),0.0785,0.0964

Target,probe-labelled cysteine peptide fold change (10 µM),probe-labelled cysteine peptide fold change (50 µM)
DHX37_Q8IY37_1116_ADCHEALLAAWK (UniProt Q8IY37),-0.0208,0.00559
DNAJA4_Q8WW22_138_CEGVGGK (UniProt Q8WW22),0.0156,-0.271
DIDO1_Q9BTC0_296_CEEWFHGDCVGISEAR (UniProt Q9BTC0),0.0807,0.114
DIDO1_Q9BTC0_288+296_CEEWFHGDCVGISEAR (UniProt Q9BTC0),-0.108,-0.324
DHX36_Q9H2U1_611_VQPGHCYHLYNGLR (UniProt Q9H2U1),0.158,-0.0716
DNAJA3_Q96EY1_236_EFTVNIMDTCER (UniProt Q96EY1),-0.1,-0.195
DLD_P09622_306_AEVITCDVLLVCIGR (UniProt P09622),0.0292,0.188
DNMT1_P26358_420_HGHLCPIDTGLIEK (UniProt P26358),-0.227,-0.325
DMXL1_Q9Y485_1352_CIAGEVVALNEAESNHER (UniProt Q9Y485),0.185,-0.189
DNM1L_O00429_644_DCEVIER (UniProt O00429),0.0314,0.289
DNM1L_O00429_470_LHDAIVEVVTCLLRK (UniProt O00429),0.0188,-0.542
DHX9_Q08211_773+777_VRPGFCFHLCSR (UniProt Q08211),-0.269,-0.13
DNMT1_P26358_1071_CTVEYGEDLPECVQVYSMGGPNR (UniProt P26358),-0.231,-0.414
DNAJA4_Q8WW22_368_EFCPNEQNWR (UniProt Q8WW22),-0.223,-0.435
DHX33_Q9H6R0_190_YSCVILDEAHER (UniProt Q9H6R0),0.00983,0.238
DNMT1_P26358_353+356_CIQCGQYLDDPDLK (UniProt P26358),0.138,-0.0723
DISC1_Q9NRI5_239_EAESHCQSPQEMGAK (UniProt Q9NRI5),-0.264,-0.212
DIAPH1_O60610_1227_AGCAVTSLLASELTK (UniProt O60610),-0.247,-0.511
DHX38_Q92620_582_TTQLTQYLHEDGYTDYGMIGCTQPR (UniProt Q92620),-0.0245,0.135

# Reprinted at random: 3 entries already listed
Target,probe-labelled cysteine peptide fold change (10 µM),probe-labelled cysteine peptide fold change (50 µM)
DHX30_Q7L2E3_346_RPCTIQVPEPILR (UniProt Q7L2E3),-0.647,-1.7
DNM1L_O00429_470_LHDAIVEVVTCLLRK (UniProt O00429),0.0188,-0.542
DNAJA3_Q96EY1_236_EFTVNIMDTCER (UniProt Q96EY1),-0.1,-0.195
